Measurements published in PMC8120308.
These are yes or no findings as the source states them, for the method shown. Binding seen in cells or lysates may run through a third protein. Some binding calls cover weakened binding; strength is not graded here.

Protein sequences, listed by entry. Tags and fused reporters are not part of them. Lines headed by an entry give the natural chain unless they say otherwise; changes in a name come on top. Chains listed by the source or under a name are the forms on record and can include a tag or linker.
UniProt P45481: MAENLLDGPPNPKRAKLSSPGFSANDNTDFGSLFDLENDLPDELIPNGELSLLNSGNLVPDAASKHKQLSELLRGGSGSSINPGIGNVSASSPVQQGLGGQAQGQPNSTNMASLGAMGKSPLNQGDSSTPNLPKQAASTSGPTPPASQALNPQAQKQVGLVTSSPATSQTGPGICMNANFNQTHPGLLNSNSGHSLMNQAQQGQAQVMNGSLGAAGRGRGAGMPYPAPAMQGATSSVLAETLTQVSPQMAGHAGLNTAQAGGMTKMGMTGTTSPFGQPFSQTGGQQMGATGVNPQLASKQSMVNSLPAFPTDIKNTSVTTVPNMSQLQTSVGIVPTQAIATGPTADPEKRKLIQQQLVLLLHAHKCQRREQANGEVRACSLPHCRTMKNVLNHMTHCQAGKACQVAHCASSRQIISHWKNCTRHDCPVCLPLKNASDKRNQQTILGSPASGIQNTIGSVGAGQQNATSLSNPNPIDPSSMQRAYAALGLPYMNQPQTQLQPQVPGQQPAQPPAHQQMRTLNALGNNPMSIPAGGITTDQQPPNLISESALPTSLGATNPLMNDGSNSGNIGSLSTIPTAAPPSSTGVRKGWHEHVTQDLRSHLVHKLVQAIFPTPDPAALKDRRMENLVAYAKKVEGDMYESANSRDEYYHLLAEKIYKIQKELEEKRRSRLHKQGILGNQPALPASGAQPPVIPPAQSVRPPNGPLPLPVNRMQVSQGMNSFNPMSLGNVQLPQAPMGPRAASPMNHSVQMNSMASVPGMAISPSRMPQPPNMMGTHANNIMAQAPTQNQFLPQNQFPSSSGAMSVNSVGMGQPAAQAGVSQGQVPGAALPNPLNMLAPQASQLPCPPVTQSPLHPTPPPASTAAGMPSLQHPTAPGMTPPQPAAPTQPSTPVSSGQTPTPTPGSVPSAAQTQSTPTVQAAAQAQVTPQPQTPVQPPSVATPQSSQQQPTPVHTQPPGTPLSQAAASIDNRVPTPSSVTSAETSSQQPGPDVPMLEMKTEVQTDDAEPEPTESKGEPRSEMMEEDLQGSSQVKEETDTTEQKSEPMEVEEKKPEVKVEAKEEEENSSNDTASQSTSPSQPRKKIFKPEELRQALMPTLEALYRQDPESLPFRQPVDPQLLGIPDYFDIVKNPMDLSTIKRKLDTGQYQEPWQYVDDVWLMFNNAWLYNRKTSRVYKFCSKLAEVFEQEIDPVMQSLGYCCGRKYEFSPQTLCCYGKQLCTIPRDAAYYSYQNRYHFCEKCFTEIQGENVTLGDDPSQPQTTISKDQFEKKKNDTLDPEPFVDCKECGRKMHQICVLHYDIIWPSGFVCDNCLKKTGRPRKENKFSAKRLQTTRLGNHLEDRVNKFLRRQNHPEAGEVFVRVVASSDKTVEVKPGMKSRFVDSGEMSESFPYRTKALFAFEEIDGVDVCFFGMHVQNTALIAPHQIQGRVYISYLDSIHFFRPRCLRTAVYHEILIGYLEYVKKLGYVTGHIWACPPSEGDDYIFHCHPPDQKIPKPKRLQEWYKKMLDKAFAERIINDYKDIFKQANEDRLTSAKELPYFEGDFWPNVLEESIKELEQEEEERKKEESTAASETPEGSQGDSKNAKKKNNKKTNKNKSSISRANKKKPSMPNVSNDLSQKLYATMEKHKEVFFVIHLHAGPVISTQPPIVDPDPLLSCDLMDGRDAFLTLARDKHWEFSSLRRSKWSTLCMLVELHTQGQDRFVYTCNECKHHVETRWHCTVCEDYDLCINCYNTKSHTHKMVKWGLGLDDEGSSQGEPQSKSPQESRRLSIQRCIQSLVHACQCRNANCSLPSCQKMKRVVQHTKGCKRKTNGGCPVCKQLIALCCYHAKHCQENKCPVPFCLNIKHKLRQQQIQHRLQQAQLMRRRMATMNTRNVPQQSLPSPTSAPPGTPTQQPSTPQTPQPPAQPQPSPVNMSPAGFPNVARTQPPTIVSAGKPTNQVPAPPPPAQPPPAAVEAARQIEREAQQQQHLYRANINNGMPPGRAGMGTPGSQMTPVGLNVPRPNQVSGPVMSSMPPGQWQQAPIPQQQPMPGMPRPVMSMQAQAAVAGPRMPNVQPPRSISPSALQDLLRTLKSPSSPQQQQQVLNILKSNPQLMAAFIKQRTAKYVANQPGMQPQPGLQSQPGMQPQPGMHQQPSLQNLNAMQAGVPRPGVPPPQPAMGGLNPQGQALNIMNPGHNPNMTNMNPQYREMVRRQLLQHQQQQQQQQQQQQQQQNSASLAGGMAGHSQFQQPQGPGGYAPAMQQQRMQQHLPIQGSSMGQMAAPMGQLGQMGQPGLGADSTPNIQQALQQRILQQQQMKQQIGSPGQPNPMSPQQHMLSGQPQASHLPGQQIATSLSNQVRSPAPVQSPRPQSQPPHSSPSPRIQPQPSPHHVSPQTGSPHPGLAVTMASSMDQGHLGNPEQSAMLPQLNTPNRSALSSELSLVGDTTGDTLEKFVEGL
phosphorylated cAMP-response element-binding protein, CREB (Ser133) (Q01147-1, form named): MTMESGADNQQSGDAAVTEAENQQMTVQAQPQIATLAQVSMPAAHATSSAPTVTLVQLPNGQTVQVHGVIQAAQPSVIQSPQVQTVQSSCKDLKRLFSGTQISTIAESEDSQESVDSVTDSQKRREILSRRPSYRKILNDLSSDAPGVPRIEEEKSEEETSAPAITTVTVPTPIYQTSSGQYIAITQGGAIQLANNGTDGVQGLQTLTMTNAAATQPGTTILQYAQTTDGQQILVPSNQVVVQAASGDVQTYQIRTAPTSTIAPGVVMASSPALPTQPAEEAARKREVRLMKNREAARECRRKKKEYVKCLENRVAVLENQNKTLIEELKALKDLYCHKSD

Biological target: CREB-binding protein (CBP) (mouse (endogenous in RAW264.7)) (UniProt P45481)
Assay: co-IP; RAW264.7 lysates (IP lysis buffer: 10 mM Tris pH 7.4, 25 mM NaCl2, 5 mM EDTA, 0.1% NP40, 1% protease inhibitor), pre-cleared, mixed with anti-CBP antibody or control IgG for 1 h at 4°C, captured on Protein A magnetic beads, blotted for p-NF-κB or CREB (ser133); cells after LPS modeling, with or without XBJ, transfected with lentiviral vector overexpressing GSK-3β or negative control vector

binding: binds
Substance: phosphorylated cAMP-response element-binding protein, CREB (Ser133) (from UniProt Q01147-1 1-341)
